From the M2OR odorant receptor database
The list shows a part of the results, in another mix than the full data. The calls were merged from several studies; some rest on single wells. The list shows a part of the results. This is one part of the list.

By UniProt entry, the sequences of proteins in these tests, tags left out. Where a name states a change or a piece, a line headed by the entry shows the natural chain unless it says otherwise.
UniProt Q9H208: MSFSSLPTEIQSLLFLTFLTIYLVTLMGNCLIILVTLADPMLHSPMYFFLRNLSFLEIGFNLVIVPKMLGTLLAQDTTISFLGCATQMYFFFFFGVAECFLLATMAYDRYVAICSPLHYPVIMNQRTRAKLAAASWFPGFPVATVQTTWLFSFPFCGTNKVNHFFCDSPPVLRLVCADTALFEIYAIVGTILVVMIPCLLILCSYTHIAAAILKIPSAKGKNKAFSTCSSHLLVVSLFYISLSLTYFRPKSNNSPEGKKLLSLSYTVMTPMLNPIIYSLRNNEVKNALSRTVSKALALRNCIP

What was measured:
Details in all cases: stereoisomer not certain
O5AL1 = system: T1, O5AL1
T1 sequence (whole entry): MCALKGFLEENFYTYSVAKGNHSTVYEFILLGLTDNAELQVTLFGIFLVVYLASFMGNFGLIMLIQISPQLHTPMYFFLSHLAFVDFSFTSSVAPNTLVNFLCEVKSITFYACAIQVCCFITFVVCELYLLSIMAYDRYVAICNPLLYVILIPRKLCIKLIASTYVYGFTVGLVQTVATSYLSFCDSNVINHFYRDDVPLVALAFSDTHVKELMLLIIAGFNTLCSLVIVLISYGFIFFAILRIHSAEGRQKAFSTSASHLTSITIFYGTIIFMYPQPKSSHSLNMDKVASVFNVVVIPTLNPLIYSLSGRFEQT
In short: (§1)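 Each receptor–molecule pair is labelled responsive or non-responsive (inactive) according to whether the original authors judged the measured signal statistically different from baseline. The data were taken from the main text and supplementary material of published papers and checked for typos and inconsistencies. Assay methods differed by source, with transient luciferase assays in mammalian cell lines being common.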

O5AP2 = system: T2, O5AP2
T2 sequence (whole entry): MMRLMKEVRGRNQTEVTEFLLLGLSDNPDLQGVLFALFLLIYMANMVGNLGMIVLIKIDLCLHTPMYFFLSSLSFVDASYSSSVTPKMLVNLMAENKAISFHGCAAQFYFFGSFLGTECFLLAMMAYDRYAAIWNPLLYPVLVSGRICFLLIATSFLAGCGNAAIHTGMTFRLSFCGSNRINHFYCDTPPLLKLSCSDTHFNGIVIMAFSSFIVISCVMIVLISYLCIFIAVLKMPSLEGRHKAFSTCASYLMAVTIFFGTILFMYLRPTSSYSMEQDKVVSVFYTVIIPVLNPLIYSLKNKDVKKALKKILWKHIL
In short: as §1

O5AU1 = system: T3, O5AU1
T3 sequence (whole entry): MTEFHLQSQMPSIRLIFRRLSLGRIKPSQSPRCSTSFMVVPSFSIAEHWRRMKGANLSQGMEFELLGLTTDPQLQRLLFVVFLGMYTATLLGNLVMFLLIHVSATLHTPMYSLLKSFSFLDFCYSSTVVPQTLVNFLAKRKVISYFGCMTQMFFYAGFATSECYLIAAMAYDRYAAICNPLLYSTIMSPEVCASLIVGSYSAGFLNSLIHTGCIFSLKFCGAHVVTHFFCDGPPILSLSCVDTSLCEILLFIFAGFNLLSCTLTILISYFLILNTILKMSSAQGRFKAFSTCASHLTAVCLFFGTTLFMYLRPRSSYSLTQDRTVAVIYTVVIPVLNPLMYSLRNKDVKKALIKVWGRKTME
In short: as §1

O5H14 = system: T4, O5H14
T4 sequence (whole entry): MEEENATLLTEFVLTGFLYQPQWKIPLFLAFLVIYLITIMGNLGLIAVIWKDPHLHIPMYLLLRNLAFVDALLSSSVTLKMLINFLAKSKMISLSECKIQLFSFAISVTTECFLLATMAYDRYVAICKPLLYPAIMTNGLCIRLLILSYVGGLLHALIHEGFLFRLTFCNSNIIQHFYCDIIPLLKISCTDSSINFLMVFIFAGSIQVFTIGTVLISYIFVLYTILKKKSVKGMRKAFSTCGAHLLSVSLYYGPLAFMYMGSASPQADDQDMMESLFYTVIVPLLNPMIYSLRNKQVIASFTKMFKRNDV
In short: as §1

O6C68 = system: T5, O6C68
T5 sequence (whole entry): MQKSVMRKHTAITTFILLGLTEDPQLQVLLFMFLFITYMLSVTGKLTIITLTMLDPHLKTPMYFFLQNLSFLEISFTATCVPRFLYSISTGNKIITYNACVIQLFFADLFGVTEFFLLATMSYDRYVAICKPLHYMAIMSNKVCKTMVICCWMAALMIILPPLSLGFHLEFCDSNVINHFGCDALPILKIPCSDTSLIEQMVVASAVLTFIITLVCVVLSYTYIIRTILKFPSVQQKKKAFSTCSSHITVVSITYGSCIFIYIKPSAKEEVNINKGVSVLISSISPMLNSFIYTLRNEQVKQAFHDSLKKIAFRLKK
In short: as §1

O6C70 = system: T6, O6C70
T6 sequence (whole entry): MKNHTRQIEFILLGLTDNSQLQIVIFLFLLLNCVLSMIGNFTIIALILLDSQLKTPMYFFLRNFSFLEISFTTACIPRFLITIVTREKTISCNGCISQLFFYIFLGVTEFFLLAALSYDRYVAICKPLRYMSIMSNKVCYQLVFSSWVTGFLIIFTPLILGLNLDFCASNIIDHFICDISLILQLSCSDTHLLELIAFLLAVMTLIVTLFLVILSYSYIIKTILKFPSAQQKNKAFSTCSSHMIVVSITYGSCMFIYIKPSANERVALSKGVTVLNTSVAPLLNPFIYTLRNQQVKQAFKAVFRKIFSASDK
In short: as §1

O7E24 = system: T7, O7E24
T7 sequence (whole entry): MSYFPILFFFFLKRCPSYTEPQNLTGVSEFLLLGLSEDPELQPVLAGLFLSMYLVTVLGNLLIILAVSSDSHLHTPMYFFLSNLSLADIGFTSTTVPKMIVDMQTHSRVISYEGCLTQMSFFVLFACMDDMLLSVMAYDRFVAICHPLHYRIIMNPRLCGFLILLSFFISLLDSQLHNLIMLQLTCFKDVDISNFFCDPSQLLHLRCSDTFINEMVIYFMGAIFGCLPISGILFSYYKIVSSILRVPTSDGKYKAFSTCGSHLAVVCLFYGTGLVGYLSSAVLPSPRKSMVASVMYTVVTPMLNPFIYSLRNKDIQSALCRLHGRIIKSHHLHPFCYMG
In short: as §1

OR10A3 (Homo sapiens) = target: T8, OR10A3 (Homo sapiens) (UniProt P58181)
T8 sequence (whole entry): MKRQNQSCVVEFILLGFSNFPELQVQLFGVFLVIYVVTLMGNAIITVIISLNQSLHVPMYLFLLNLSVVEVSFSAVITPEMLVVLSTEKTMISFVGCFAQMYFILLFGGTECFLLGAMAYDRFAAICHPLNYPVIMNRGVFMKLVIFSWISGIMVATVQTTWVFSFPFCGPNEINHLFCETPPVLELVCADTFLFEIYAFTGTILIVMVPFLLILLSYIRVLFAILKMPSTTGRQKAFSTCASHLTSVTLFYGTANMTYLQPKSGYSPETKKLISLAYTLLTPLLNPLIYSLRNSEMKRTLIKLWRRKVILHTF
In short: as §1

O5AN1 = system: T9, O5AN1
T9 sequence (whole entry): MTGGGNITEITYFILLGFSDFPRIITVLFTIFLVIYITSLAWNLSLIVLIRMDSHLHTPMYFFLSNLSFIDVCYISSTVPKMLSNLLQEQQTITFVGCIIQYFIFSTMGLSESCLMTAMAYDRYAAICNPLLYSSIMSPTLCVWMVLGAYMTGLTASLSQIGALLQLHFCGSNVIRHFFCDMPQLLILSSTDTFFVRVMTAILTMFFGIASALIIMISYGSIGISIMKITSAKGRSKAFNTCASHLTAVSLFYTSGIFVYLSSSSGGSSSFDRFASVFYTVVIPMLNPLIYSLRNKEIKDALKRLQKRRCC
In short: as §1

OR10A2 (Homo sapiens) = OR10A2 (Homo sapiens) (UniProt Q9H208)
In short: as §1

Measured: odorant receptor agonist call

CC(C)C(=O)O
inactive: O5AL1 | O5AP2 | O5AU1 | O5H14 | O6C68 | O6C70 | O7E24 | OR10A3 (Homo sapiens)

CCC=CCCO
inactive: O5AL1 | O5AP2 | O5AU1 | O5H14 | O6C68 | O6C70 | O7E24 | OR10A3 (Homo sapiens)

CC12CCC(CC1)C(C)(C)O2
inactive: O5AL1 | O5AP2 | O5AU1 | O5H14 | O6C68 | O6C70 | O7E24 | OR10A3 (Homo sapiens)

CCCCCCCCOC(C)=O
active: O6C68
inactive: O5AL1 | O5AP2 | O5AU1 | O5H14 | O6C70 | O7E24 | OR10A3 (Homo sapiens)

O=C1CCCCCCCCCCCCCCO1
inactive: O5AL1 | O5AN1 | O5AP2 | O5AU1 | O5H14 | O6C68 | O6C70 | O7E24 | OR10A3 (Homo sapiens)

CC(=O)OC1CC2CCC1(C)C2(C)C (stereo unspecified)
inactive: O5AL1 | O5AP2 | O5AU1 | O5H14 | O6C68 | O6C70 | O7E24 | OR10A3 (Homo sapiens)

c1ccc(Oc2ccccc2)cc1
inactive: O5AL1 | O5AP2 | O5AU1 | O5H14 | O6C68 | O6C70 | O7E24 | OR10A3 (Homo sapiens)

O=C1CCCCC1
inactive: O5AL1 | O5AN1 | O5AP2 | O5AU1 | O5H14 | O6C70 | O7E24 | OR10A3 (Homo sapiens)

CC12C=CCC1C1CCC3CC(=O)CCC3(C)C1CC2 (stereo unspecified)
active: O5AP2
inactive: O5AL1 | O5AU1 | O5H14 | O6C68 | O6C70 | O7E24 | OR10A2 (Homo sapiens) | OR10A3 (Homo sapiens)

CC1CCC(C(C)C)C(O)C1 (stereo unspecified)
inactive: O5AL1 | O5AP2 | O5AU1 | O6C68 | O6C70 | O7E24 | OR10A3 (Homo sapiens)
active: O5H14

CCCCCCOC(=O)CCC
inactive: O5AL1 | O5AP2 | O5AU1 | O5H14 | O6C68 | O6C70 | O7E24 | OR10A3 (Homo sapiens)

CC1COCc2cc3c(cc21)C(C)(C)C(C)C3(C)C (stereo unspecified)
active: O5AL1 | O5AU1 | O5H14 | O6C70 | O7E24 | OR10A3 (Homo sapiens)
inactive: O5AN1 | O5AP2 | O6C68

CC(C)CCC(=O)O
inactive: O5AL1 | O5AP2 | O5AU1 | O5H14 | O6C68 | O6C70 | O7E24 | OR10A3 (Homo sapiens)

CCCCCCCC=CC=O
active: O5H14
inactive: O5AL1 | O5AP2 | O5AU1 | O6C68 | O6C70 | O7E24 | OR10A3 (Homo sapiens)

COc1cc(C=O)ccc1O
inactive: O5AL1 | O5AP2 | O5AU1 | O5H14 | O6C68 | O6C70 | O7E24 | OR10A3 (Homo sapiens)

CC(=O)C(C)=O
inactive: O5AL1 | O5AP2 | O5AU1 | O5H14 | O6C68 | O6C70 | O7E24 | OR10A3 (Homo sapiens)

CCC1(O)C2(C)CCC(C2)C1(C)C (stereo unspecified)
inactive: O5AL1 | O5AP2 | O5AU1 | O5H14 | O6C68 | O6C70 | O7E24 | OR10A3 (Homo sapiens)

CC(C)CC(=O)O
inactive: O5AL1 | O5AP2 | O5AU1 | O5H14 | O6C70 | O7E24 | OR10A3 (Homo sapiens)
active: O6C68

Three structures out of the list, ordered by formula weight, largest number first.
COc1cc(C=O)ccc1O
inactive: O5AL1 | O5AP2 | O5AU1 | O5H14 | O6C68 | O6C70 | O7E24 | OR10A3 (Homo sapiens)

CC(C)CC(=O)O
inactive: O5AL1 | O5AP2 | O5AU1 | O5H14 | O6C70 | O7E24 | OR10A3 (Homo sapiens)
active: O6C68

CC(=O)C(C)=O
inactive: O5AL1 | O5AP2 | O5AU1 | O5H14 | O6C68 | O6C70 | O7E24 | OR10A3 (Homo sapiens)

(listing goes on)

COc1ccccc1O
inactive: O5AL1 | O5AP2 | O5AU1 | O5H14 | O6C68 | O6C70 | O7E24 | OR10A3 (Homo sapiens)

CCCCCOC(C)=O
inactive: O5AL1 | O5AP2 | O5AU1 | O5H14 | O6C68 | O6C70 | O7E24 | OR10A3 (Homo sapiens)

O=C1CCCCCCCCCCCC(=O)OCCO1
inactive: O5AL1 | O5AN1 | O5AP2 | O5AU1 | O5H14 | O6C70 | O7E24 | OR10A3 (Homo sapiens)
active: O6C68

C=CCc1ccc(OC(C)=O)c(OC)c1
inactive: O5AL1 | O5AP2 | O5AU1 | O6C70 | O7E24 | OR10A3 (Homo sapiens)
active: O5H14 | O6C68

CC12CCC(C1)C(C)(C)C2=O (stereo unspecified)
inactive: O5AL1 | O5AP2 | O5AU1 | O5H14 | O6C68 | O6C70 | O7E24 | OR10A3 (Homo sapiens)

CC(=O)OC(C)(C)C1CC=C(C)CC1 (stereo unspecified)
inactive: O5AL1 | O5AP2 | O5AU1 | O5H14 | O6C68 | O6C70 | O7E24 | OR10A3 (Homo sapiens)
